The values below come from the supplement of paper PMC10338343.

± gives the standard deviation. The list shows a part of the results. The uncertainty is large for many entries.

The test has as its system EfPiwi piRISC loaded with L1MC piRNA (26 nt). In words: pre-steady-state target cleavage rate (min^-1); guide: L1MC piRNA 5'p-UAACUAAAUACUAUGCAAGCUGUAGG; MIWI and MILI are mouse PIWI proteins and EfPiwi is from a freshwater sponge; tags in brackets are library labels; higher = faster piRNA-guided slicing of the target. The conditions noted are these: auxiliary factor: none (no Gtsf1). The procedure, abridged: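 In this Cleave-'n-Seq assay, uncleaved targets were sequenced and normalised to depth and to weakly complementary targets. They came from a transcribed, DNA-blocked target RNA library […] mixed with 1 nM active affinity-purified piRISC carrying one synthetic guide, with or without 500 nM GTSF1 partner protein, in HEPES–potassium acetate buffer at 33 °C for 0–8 or 0–960 min. After three trials were pooled and k3 was capped at 0.0001 min^-1, the pre-steady-state cleavage rate was obtained from a burst-and-steady-state fit.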
Regarding UCCUCCUACAGCUUGCAUAGUAUUUACAAA, the “pre-steady-state target cleavage rate” value came out at 0.000566 ± 0.013. Under UCCUGGAUGUCGAACCAUACUAUUUACUUA stands 0.00023 ± 0.02. Under UCCUGGAUGUCGAACGUAUCUAUUUACAUA stands below 0.0001; under UCCUGCAUGAGCUUGCAUAGUAUUUACAAA, 0.000427 ± 0.016.
